Values from PubChem BioAssay AID1159578 (Peter MacCallum Cancer Centre, 2015).
In all, the deposit lists about 18,000 reagents; shown is an unselected part. Over the whole deposit, about 1,030 (5.7%) are marked active. 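Inactive calls also include pools with fewer than 3300 nuclei, whose migration was not assessed.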 The raw values are shown without normalisation. The numbers tell different reagents against one gene apart.

- Aim: 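siRNA pools altering how lymphatic endothelial cells close a scratch wound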 (primary screen)
- System: human lymphatic endothelial cells
- Reagents: siRNA pool against human genes, 40 nM
- Duration: 48 h after transfection
- Measurement: 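High-content imaging of dye-stained cells in a scratch assay measures filled wound area and nuclei per well; duplicate means given as ratio to mock and robust z-score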
- Reading the numbers: migration robust z-score: higher = faster migration into the scratch; migration relative to mock: higher = more scratch area covered than mock; nuclei per well: higher = more cells in the well
- Active means: 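Pools averaging fewer than 3300 nuclei are never called; remaining pools count as changed when migration robust z lies outside -2 to 2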
- Meaning of the calls: active = migration changed; inactive = no migration change, or too few cells

no.	gene	reagent no.	migration robust z-score	migration class with cell-count check	migration relative to mock	nuclei per well, duplicate mean	Call
1	WBP2 (WW domain binding protein 2)	1	-1.01	migration z between -2 and 2; enough cells	0.63	7177	inactive
2	GPR148 (G protein-coupled receptor 148)	1	0.11	migration z between -2 and 2; enough cells	0.82	4576	inactive
3	FOXL1 (forkhead box L1)	1	-1.71	migration z between -2 and 2; enough cells	0.48	5060	inactive
4	SEC61B (SEC61 translocon subunit beta)	1	-0.22	migration z between -2 and 2; enough cells	0.83	5598	inactive
5	UCP1 (uncoupling protein 1)	1	0.29	migration z between -2 and 2; enough cells	0.96	6702	inactive
6	SH3GL1 (SH3 domain containing GRB2 like 1, endophilin A2)	1	2.62	migration z above 2; enough cells	1.56	5830	active
7	ZNF667 (zinc finger protein 667)	1	0.1	migration z between -2 and 2; enough cells	0.91	5654	inactive
8	DDT (D-dopachrome tautomerase)	1	-0.86	migration z between -2 and 2; enough cells	0.64	5326	inactive
9	METTL22 (methyltransferase 22, Kin17 lysine)	1	-0.94	migration z between -2 and 2; enough cells	0.64	3898	inactive
10	GALNT11 (polypeptide N-acetylgalactosaminyltransferase 11)	1	1.06	migration z between -2 and 2; enough cells	1.01	4824	inactive
11	RFNG (RFNG O-fucosylpeptide 3-beta-N-acetylglucosaminyltransferase)	1	0.57	migration z between -2 and 2; enough cells	0.92	4766	inactive
12	DEFB110 (defensin beta 110)	1	1.49	migration z between -2 and 2; enough cells	1.27	5986	inactive
13	DEFB110 (defensin beta 110)	2	0.21	migration z between -2 and 2; enough cells	0.94	5638	inactive
14	CKMT2 (creatine kinase, mitochondrial 2)	1	-2.02	migration z below -2; enough cells	0.42	4722	active
15	BPIFB6 (BPI fold containing family B member 6)	1	-0.24	migration z between -2 and 2; enough cells	0.82	6320	inactive
16	RASA3 (RAS p21 protein activator 3)	1	0.44	migration z between -2 and 2; enough cells	0.89	5334	inactive
17	NKIRAS1 (NFKB inhibitor interacting Ras like 1)	1	-1.27	under 3300 nuclei; migration not judged	0.56	686	inactive
18	NOXO1 (NADPH oxidase organizer 1)	1	0.84	migration z between -2 and 2; enough cells	1.1	6224	inactive
19	PCMTD1	1	0.56	migration z between -2 and 2; enough cells	1.03	6077	inactive
20	TULP2 (TUB like protein 2)	1	-0.36	migration z between -2 and 2; enough cells	0.74	4447	inactive
21	TPH2 (tryptophan hydroxylase 2)	1	-0.55	migration z between -2 and 2; enough cells	0.7	5269	inactive
22	SELENOT (selenoprotein T)	1	1.66	migration z between -2 and 2; enough cells	1.31	6382	inactive
23	LRRC46 (leucine rich repeat containing 46)	1	-0.01	migration z between -2 and 2; enough cells	0.88	6287	inactive
24	SIGLEC6 (sialic acid binding Ig like lectin 6)	1	-1.01	migration z between -2 and 2; enough cells	0.62	3409	inactive
25	ZNF490 (zinc finger protein 490)	1	-0.9	migration z between -2 and 2; enough cells	0.65	6621	inactive
26	PABPC3 (poly(A) binding protein cytoplasmic 3)	1	1.18	migration z between -2 and 2; enough cells	1.19	6416	inactive
27	SLFN5 (schlafen family member 5)	1	0.1	migration z between -2 and 2; enough cells	0.91	7010	inactive
28	SKAP2 (src kinase associated phosphoprotein 2)	1	-3.08	migration z below -2; enough cells	0.09	6258	active
29	MTREX (Mtr4 exosome RNA helicase)	1	-0.41	migration z between -2 and 2; enough cells	0.78	5746	inactive
30	UBE2H (ubiquitin conjugating enzyme E2 H)	1	1.22	migration z between -2 and 2; enough cells	1.04	5925	inactive
31	SELENOP (selenoprotein P)	1	1.24	migration z between -2 and 2; enough cells	1.21	6450	inactive
32	SMARCD3 (SWI/SNF related BAF chromatin remodeling complex subunit D3)	1	-0.83	migration z between -2 and 2; enough cells	0.64	3997	inactive
33	PNPLA8 (patatin like domain 8, phospholipase A2)	1	0.06	migration z between -2 and 2; enough cells	0.9	7200	inactive
34	MEX3D (mex-3 RNA binding family member D)	1	-0.7	migration z between -2 and 2; enough cells	0.67	5176	inactive
35	RALB (RAS like proto-oncogene B)	1	0.28	migration z between -2 and 2; enough cells	0.86	4856	inactive
36	PDGFC (platelet derived growth factor C)	1	0.94	migration z between -2 and 2; enough cells	1.13	5606	inactive
37	FTMT (ferritin mitochondrial)	1	3.09	migration z above 2; enough cells	1.68	6532	active
38	DNASE1L2 (deoxyribonuclease 1 like 2)	1	0.36	migration z between -2 and 2; enough cells	0.88	6352	inactive

8 of these entries in another layout.
{"gene": "CKMT2 (creatine kinase, mitochondrial 2)", "reagent no.": 1, "migration robust z-score": -2.02, "migration class with cell-count check": "migration z below -2; enough cells", "migration relative to mock": 0.42, "nuclei per well, duplicate mean": 4722, "Call": "active"}
{"gene": "BPIFB6 (BPI fold containing family B member 6)", "reagent no.": 1, "migration robust z-score": -0.24, "migration class with cell-count check": "migration z between -2 and 2; enough cells", "migration relative to mock": 0.82, "nuclei per well, duplicate mean": 6320, "Call": "inactive"}
{"gene": "RASA3 (RAS p21 protein activator 3)", "reagent no.": 1, "migration robust z-score": 0.44, "migration class with cell-count check": "migration z between -2 and 2; enough cells", "migration relative to mock": 0.89, "nuclei per well, duplicate mean": 5334, "Call": "inactive"}
{"gene": "NKIRAS1 (NFKB inhibitor interacting Ras like 1)", "reagent no.": 1, "migration robust z-score": -1.27, "migration class with cell-count check": "under 3300 nuclei; migration not judged", "migration relative to mock": 0.56, "nuclei per well, duplicate mean": 686, "Call": "inactive"}
{"gene": "NOXO1 (NADPH oxidase organizer 1)", "reagent no.": 1, "migration robust z-score": 0.84, "migration class with cell-count check": "migration z between -2 and 2; enough cells", "migration relative to mock": 1.1, "nuclei per well, duplicate mean": 6224, "Call": "inactive"}
{"gene": "PCMTD1", "reagent no.": 1, "migration robust z-score": 0.56, "migration class with cell-count check": "migration z between -2 and 2; enough cells", "migration relative to mock": 1.03, "nuclei per well, duplicate mean": 6077, "Call": "inactive"}
{"gene": "TULP2 (TUB like protein 2)", "reagent no.": 1, "migration robust z-score": -0.36, "migration class with cell-count check": "migration z between -2 and 2; enough cells", "migration relative to mock": 0.74, "nuclei per well, duplicate mean": 4447, "Call": "inactive"}
{"gene": "TPH2 (tryptophan hydroxylase 2)", "reagent no.": 1, "migration robust z-score": -0.55, "migration class with cell-count check": "migration z between -2 and 2; enough cells", "migration relative to mock": 0.7, "nuclei per well, duplicate mean": 5269, "Call": "inactive"}

More results follow:
no.	gene	reagent no.	migration robust z-score	migration class with cell-count check	migration relative to mock	nuclei per well, duplicate mean	Call
39	EIF3K (eukaryotic translation initiation factor 3 subunit K)	1	-1.14	migration z between -2 and 2; enough cells	0.58	3726	inactive
40	SPRR2A (small proline rich protein 2A)	1	0.3	migration z between -2 and 2; enough cells	0.97	6404	inactive
41	CUL3 (cullin 3)	1	-2.18	migration z below -2; enough cells	0.38	6086	active
42	FAM3D (FAM3 metabolism regulating signaling molecule D)	1	-1.36	migration z between -2 and 2; enough cells	0.53	6020	inactive
43	LSM3	1	0.36	migration z between -2 and 2; enough cells	0.98	7722	inactive
44	OR10A4 (olfactory receptor family 10 subfamily A member 4)	1	0.61	migration z between -2 and 2; enough cells	1.04	6415	inactive
45	CUTC (cutC copper transporter)	1	0.2	migration z between -2 and 2; enough cells	0.94	5819	inactive
46	VTI1A (vesicle transport through interaction with t-SNAREs 1A)	1	0.46	migration z between -2 and 2; enough cells	0.9	4488	inactive
47	CHMP2A (charged multivesicular body protein 2A)	1	-3.56	under 3300 nuclei; migration not judged	-0.04	2770	inactive
48	GM2A (ganglioside GM2 activator)	1	-0.1	migration z between -2 and 2; enough cells	0.78	5752	inactive
49	PINK1 (PTEN induced kinase 1)	1	-0.78	migration z between -2 and 2; enough cells	0.66	3896	inactive
50	RNF208 (ring finger protein 208)	1	1.22	migration z between -2 and 2; enough cells	1.04	6642	inactive
51	MAGED2 (MAGE family member D2)	1	0.06	migration z between -2 and 2; enough cells	0.9	5952	inactive
52	ENPEP (glutamyl aminopeptidase)	1	0.91	migration z between -2 and 2; enough cells	0.98	5750	inactive
53	BOD1 (biorientation of chromosomes in cell division 1)	1	-1.24	migration z between -2 and 2; enough cells	0.56	5438	inactive
54	GLIS2 (GLIS family zinc finger 2)	1	0.96	migration z between -2 and 2; enough cells	0.99	6079	inactive
55	OVOL1 (ovo like transcriptional repressor 1)	1	-0.22	migration z between -2 and 2; enough cells	0.83	4210	inactive
56	ADRA2C (adrenoceptor alpha 2C)	1	-0.7	migration z between -2 and 2; enough cells	0.67	5409	inactive
57	POU2AF2 (POU class 2 homeobox associating factor 2)	1	-0.05	migration z between -2 and 2; enough cells	0.87	5809	inactive
